Test results reported in publication PMC6134322.
Results are given in words; binding and its absence hold for the method and conditions named. In cells and extracts the contact can be indirect. Some results given as binding are weak or reduced against the parent protein; the word gives no strength.

Protein sequences, listed by entry. Tags and fused reporters are not part of them.
UniProt O70511: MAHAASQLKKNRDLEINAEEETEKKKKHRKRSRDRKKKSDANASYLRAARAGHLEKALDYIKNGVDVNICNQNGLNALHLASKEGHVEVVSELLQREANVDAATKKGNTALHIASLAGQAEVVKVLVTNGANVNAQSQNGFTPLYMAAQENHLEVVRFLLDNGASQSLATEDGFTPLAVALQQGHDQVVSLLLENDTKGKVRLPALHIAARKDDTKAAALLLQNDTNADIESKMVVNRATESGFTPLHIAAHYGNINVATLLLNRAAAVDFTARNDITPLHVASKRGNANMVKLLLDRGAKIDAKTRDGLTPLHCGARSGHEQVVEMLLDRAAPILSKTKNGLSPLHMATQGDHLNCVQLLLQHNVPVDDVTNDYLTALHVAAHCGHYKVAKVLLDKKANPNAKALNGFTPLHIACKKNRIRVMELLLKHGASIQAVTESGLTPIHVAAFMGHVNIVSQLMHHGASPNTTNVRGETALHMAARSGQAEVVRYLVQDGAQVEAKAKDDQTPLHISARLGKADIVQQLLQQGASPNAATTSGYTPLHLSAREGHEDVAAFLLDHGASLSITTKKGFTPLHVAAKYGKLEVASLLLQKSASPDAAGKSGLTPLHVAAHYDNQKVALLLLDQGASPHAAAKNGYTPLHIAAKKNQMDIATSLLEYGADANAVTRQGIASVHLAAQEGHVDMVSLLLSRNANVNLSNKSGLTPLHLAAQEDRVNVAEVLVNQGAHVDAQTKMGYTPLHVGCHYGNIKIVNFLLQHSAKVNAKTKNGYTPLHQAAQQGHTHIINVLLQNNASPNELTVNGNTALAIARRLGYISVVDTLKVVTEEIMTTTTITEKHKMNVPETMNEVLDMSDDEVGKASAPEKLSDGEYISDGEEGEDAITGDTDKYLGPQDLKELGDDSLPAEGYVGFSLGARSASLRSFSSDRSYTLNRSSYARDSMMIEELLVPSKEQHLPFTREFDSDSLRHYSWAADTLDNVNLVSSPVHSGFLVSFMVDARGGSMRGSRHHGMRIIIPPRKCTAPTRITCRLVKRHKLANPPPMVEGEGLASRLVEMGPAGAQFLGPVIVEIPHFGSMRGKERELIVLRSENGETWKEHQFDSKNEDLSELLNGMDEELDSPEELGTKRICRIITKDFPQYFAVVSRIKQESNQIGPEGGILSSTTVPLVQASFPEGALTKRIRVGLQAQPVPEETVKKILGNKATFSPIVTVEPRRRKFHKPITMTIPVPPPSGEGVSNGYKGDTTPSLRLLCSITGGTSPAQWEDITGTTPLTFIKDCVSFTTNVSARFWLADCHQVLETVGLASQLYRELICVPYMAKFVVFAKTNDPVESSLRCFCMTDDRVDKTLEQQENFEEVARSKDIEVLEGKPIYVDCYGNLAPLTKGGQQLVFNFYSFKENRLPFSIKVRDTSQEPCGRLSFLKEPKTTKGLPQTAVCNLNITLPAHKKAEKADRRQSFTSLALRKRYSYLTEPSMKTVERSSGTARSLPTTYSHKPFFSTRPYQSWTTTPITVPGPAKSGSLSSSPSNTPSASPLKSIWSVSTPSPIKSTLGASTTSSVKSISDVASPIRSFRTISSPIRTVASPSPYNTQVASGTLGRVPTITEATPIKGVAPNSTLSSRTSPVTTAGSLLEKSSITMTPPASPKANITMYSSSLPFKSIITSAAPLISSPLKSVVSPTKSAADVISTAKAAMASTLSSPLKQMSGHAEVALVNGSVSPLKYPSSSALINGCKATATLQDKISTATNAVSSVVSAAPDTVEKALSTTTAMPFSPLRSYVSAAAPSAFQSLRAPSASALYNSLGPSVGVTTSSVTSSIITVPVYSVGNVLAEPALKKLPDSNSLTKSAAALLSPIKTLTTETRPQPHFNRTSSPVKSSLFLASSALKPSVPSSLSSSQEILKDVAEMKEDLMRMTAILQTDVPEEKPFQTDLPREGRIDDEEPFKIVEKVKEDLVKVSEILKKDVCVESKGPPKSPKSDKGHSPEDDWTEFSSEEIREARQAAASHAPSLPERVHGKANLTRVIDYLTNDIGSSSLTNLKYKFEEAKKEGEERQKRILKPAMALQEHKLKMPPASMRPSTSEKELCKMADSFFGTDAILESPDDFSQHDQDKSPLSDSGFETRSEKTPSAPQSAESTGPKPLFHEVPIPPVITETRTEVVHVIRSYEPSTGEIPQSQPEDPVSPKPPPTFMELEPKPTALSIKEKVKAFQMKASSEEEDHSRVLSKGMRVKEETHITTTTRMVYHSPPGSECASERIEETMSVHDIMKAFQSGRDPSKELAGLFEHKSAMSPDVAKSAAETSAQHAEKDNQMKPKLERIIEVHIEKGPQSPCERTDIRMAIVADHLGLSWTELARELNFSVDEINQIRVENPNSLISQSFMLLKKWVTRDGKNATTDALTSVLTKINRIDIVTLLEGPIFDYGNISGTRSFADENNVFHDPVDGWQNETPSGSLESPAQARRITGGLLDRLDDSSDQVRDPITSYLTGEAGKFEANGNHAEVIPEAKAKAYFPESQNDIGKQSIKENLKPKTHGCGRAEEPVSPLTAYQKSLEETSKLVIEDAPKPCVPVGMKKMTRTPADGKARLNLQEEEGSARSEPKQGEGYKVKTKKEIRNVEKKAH
UniProt P11530: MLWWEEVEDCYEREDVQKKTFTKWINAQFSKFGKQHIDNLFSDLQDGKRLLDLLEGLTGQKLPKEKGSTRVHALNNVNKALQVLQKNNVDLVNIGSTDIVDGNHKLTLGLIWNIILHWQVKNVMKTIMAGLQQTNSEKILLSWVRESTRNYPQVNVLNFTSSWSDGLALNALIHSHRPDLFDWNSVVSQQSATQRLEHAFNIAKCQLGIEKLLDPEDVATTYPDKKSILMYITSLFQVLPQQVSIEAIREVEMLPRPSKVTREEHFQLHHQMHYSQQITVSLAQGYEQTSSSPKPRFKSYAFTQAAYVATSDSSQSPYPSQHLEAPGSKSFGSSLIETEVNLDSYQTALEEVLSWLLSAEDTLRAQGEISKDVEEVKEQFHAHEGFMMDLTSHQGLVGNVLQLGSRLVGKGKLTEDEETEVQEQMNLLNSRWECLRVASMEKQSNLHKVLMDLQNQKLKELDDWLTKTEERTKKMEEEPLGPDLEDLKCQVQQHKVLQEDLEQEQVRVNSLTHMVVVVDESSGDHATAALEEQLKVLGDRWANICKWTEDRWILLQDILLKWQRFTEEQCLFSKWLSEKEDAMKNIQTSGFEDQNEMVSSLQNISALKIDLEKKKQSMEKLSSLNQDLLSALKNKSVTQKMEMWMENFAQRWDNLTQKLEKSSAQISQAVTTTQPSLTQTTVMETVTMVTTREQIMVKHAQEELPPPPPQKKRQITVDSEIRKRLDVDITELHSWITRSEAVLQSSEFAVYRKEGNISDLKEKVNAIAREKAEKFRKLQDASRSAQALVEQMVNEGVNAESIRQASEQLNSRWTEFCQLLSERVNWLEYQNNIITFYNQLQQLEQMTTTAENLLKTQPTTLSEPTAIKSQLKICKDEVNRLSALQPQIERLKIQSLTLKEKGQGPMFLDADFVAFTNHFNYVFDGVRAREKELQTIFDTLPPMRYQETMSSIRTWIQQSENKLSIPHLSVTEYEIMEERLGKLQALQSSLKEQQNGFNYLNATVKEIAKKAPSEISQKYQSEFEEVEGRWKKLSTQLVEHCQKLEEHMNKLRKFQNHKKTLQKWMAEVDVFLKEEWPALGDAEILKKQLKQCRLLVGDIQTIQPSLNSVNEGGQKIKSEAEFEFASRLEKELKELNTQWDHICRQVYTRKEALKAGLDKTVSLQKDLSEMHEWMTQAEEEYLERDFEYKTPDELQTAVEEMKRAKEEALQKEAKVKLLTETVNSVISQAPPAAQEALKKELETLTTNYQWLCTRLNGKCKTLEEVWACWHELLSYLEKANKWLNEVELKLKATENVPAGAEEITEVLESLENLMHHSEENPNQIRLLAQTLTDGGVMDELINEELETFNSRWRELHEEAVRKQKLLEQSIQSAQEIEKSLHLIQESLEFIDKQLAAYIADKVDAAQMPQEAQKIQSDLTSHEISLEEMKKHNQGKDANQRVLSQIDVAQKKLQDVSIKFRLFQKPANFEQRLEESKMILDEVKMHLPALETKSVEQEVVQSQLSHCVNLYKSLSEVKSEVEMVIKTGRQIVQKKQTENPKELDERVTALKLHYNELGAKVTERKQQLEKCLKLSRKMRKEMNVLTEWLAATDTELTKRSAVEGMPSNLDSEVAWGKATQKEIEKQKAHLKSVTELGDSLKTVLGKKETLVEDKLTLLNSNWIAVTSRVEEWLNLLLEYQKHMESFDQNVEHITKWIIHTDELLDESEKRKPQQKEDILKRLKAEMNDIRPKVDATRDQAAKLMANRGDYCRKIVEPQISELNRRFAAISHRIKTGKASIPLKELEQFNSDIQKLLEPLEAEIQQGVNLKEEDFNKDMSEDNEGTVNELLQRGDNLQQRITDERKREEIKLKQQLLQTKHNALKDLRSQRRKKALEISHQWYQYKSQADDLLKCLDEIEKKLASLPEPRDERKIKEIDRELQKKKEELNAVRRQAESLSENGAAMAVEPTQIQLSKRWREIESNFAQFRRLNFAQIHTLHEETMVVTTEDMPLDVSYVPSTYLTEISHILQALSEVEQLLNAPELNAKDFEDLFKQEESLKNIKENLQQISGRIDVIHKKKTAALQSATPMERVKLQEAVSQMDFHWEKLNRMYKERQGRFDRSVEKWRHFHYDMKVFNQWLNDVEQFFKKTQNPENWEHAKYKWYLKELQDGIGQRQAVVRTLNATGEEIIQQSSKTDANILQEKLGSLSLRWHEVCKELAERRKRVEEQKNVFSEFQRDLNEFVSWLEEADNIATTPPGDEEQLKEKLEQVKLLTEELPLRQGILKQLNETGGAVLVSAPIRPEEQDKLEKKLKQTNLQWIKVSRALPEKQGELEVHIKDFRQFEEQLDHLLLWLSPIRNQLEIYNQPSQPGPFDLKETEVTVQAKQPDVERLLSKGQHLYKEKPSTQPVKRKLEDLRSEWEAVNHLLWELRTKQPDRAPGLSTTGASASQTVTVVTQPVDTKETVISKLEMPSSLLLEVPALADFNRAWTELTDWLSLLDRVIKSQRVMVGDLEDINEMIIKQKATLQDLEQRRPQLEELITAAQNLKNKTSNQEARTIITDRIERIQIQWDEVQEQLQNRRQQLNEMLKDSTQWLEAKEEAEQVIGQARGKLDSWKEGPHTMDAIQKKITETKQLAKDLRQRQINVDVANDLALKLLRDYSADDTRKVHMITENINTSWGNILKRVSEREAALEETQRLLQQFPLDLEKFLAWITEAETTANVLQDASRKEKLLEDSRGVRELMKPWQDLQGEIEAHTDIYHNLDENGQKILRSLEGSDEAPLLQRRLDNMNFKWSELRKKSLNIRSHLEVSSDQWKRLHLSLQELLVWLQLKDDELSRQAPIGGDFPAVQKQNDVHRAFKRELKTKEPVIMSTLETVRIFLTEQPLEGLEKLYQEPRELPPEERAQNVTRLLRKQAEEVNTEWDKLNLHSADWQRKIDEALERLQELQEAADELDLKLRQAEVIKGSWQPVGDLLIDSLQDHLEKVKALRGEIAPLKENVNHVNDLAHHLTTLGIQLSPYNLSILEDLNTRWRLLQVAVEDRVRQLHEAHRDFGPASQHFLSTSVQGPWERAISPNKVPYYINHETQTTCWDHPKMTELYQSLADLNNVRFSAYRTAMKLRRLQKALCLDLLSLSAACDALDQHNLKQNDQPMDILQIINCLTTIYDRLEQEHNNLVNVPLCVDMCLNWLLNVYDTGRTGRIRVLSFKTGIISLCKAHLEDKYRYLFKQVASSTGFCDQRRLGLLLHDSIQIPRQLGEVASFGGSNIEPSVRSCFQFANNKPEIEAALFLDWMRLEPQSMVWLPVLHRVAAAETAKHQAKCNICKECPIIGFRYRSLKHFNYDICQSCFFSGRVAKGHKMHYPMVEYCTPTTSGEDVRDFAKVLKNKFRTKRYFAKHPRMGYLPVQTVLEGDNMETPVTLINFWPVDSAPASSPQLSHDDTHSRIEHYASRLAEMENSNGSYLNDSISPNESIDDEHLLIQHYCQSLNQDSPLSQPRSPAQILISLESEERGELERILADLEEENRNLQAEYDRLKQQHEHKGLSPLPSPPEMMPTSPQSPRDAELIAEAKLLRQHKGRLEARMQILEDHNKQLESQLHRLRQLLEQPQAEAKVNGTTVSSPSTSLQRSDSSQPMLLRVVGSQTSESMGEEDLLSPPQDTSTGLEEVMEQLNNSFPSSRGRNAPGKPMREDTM

Legend:
[1] = target: ankyrin-G (rat (endogenous in neonatal rat ventricular myocytes)) (UniProt O70511); test: co-IP; lysate (RIPA buffer) of neonatal rat ventricular myocytes without amitriptyline; precipitated with anti-ankyrin-G or anti-dystrophin antibody and protein A/G beads at 4°C, blotted with anti-Nav1.5
[2] = target: dystrophin (rat (endogenous in neonatal rat ventricular myocytes)) (UniProt P11530); test: as above
[3] = target: ankyrin-G (rat (endogenous in neonatal rat ventricular myocytes)) (UniProt O70511); test: co-IP; lysate (RIPA buffer) of neonatal rat ventricular myocytes after 24 h of incubation with amitriptyline (1.0 μM); precipitated with anti-ankyrin-G or anti-dystrophin antibody and protein A/G beads at 4°C, blotted with anti-Nav1.5
[4] = target: dystrophin (rat (endogenous in neonatal rat ventricular myocytes)) (UniProt P11530); test: as above

## Nav1.5 channel protein (from UniProt P15389 1-2019)
[1]
  binding: binds
[2]
  binding: binds
[3]
  binding: binds weakly
[4]
  binding: binds weakly
